Laboratory results from PubChem BioAssay AID743255 (National Center for Advancing Translational Sciences (NCATS), 2014).
Screen size: about 390,000 compounds; about 910 (0.23%) were called active. The inconclusive results got no clear call from the source; some entries with a clear call stand among them for comparison. Calls follow the shape of the dose curve; as a rule, active = well fitted inhibition curve with a large enough effect; inconclusive = small, poorly fitted or top-dose-only effect; inactive = no such curve, though single readings can be large or run the other way. Potencies of inconclusive entries are doubtful fits and often do not repeat.

Sequences of proteins named here, by UniProt entry; tags and fusion partners are left off. A change or cut given only in a name is not applied to a line headed by its entry.
UniProt O94782: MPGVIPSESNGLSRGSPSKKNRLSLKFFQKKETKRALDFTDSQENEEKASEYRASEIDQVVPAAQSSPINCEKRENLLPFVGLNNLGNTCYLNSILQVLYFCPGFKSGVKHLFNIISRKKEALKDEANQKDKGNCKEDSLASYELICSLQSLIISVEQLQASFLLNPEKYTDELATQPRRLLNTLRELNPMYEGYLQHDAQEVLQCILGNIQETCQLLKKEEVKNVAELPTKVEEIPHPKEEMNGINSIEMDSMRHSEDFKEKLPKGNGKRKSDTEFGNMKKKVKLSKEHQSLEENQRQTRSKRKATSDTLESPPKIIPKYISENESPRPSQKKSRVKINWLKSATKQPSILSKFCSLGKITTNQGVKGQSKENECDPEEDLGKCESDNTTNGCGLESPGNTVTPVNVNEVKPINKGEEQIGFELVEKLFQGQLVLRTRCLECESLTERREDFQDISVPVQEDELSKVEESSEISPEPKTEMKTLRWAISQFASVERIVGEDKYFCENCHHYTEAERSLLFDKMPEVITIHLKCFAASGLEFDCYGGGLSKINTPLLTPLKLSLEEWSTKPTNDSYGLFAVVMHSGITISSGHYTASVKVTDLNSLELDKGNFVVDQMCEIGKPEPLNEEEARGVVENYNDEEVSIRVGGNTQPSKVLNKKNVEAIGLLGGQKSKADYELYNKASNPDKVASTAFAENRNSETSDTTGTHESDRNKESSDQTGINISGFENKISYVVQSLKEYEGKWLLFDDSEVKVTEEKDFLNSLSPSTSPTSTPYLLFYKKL

target: Ubiquitin carboxyl-terminal hydrolase 1 (Homo sapiens) (UniProt O94782); assay: Inhibitors of USP1/UAF1: Primary Screen; settings: recombinant USP1/UAF1, Ub-Rhodamine cleavage fluorescence; activity change, negative = inhibition: at 57.1 µM (top of the series); also: nearly all actives have a fitted effect of over 60% in size
Outline: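 USP1/UAF1 complex (1 nM) preincubated 15 min at room temperature with compound, then Ub-Rho substrate (150 nM final) added. Kinetic fluorescence at 480/540 nm over 6 reads at 60 s intervals; 50 mM HEPES pH 7.8, 0.5 mM EDTA, 0.1 mg/ml BSA, 1 mM TCEP, 0.01% Tween-20.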
% is scaled to controls: 0 for no effect and ±100 for the full control effect; potency is read from the fitted curve at half-maximal effect.

Potency, inconclusive:
S=C(Nc1ccccn1)NC1CCCCC1 2.82 µM [inhibitor, partial curve]
Cc1cc(=O)[nH]c(-n2[nH]c3c(c2=O)CCCC3)n1 31.6 µM [inhibitor, partial curve]
CCOC(=O)C1CCN(S(=O)(=O)c2csc(C(N)=O)c2)CC1 35.5 µM [inhibitor, partial curve, poor fit]
CC1=NN(C(=O)c2ccncc2)C(=O)C1N=Nc1ccc2ccccc2c1 (stereo not drawn) 35.5 µM [inhibitor, partial curve]
CCOc1ccccc1CNC(=O)C1CCN(S(=O)(=O)c2ccc3c(ccn3C)c2)CC1 70.8 µM [inhibitor, partial curve, poor fit]
COc1ccc(CCNS(=O)(=O)c2ccc(C(=O)NCc3ccco3)cc2)cc1OC 28.2 µM [inhibitor, single point]
O=C(Cn1ncc2c([nH]c3ccccc32)c1=O)NCC1CCN(Cc2ccc(F)cc2)CC1 0.282 µM [inhibitor, full curve]
COc1ccccc1OCC(=O)Nc1ccc(N2CCCCC2)cc1 15.8 µM [inhibitor, partial curve]
CN1c2ccsc2/C(=N/Nc2ccc(F)cc2)CS1(=O)=O 50.1 µM [inhibitor, partial curve, poor fit]
S=C(NCc1ccccc1)NCc1ccccn1 17.8 µM [inhibitor, partial curve]
COc1ccc(-n2c(O)c(/C=N/NS(=O)(=O)c3cc(C)ccc3C)c3ccccc3c2=O)cc1OC 28.2 µM [inhibitor, partial curve]
O=C(Nc1ccc(S(=O)(=O)N2CCCC2)cc1)c1ccc([N+](=O)[O-])o1 44.7 µM [inhibitor, partial curve]
O=C(NNC(=O)c1ccccc1F)C1=NN(c2ccccc2)C(=O)CC1 15.8 µM [inhibitor, partial curve, poor fit]
CCC(=O)OC1(C)C(=O)C=C2C=C(CCCC(=O)OC)OC=C2C1=O (stereo not drawn) 31.6 µM [inhibitor, partial curve, poor fit]
O=C(Nc1nc(-c2cccs2)cs1)c1ccc(Cl)s1 5.01 µM [inhibitor, full curve]
CC(C)(C)OC(=O)N1CCC(NC(=O)c2nc[nH]c2C(=O)N2CCN(C(=O)OC(C)(C)C)CC2)CC1 44.7 µM [inhibitor, partial curve, poor fit]
COc1ccccc1NC(=S)N(CCc1nc2cc(C)c(C)cc2[nH]1)Cc1cccnc1 0.631 µM [inhibitor, full curve, poor fit]
Cc1ccc(Cl)cc1N1CCN(C(=O)CCn2c(=O)c3cccn3c3cccnc32)CC1 22.4 µM [inhibitor, single point]
O=C(NC1CC1)c1cccc2c1C(=O)c1ccc(N3CCC(N4CCCCC4)CC3)cc1S2(=O)=O 35.5 µM [inhibitor, single point]
O=C(CCN1C(=O)/C(=C/c2cccs2)SC1=S)Nc1ccccc1O 1.41 µM [inhibitor, full curve, poor fit]
Fc1cc(F)c2nc(Nc3nc4cc5c(cc4s3)OCO5)sc2c1 17.8 µM [inhibitor, partial curve]
COc1ccc(CCNC(=O)c2cc3c(-c4ccc(OC)c(OC)c4)nn(C)c3s2)cc1OC 0.562 µM [inhibitor, full curve, poor fit]
CCCCCc1ccc(OCCCC[n+]2cccc(C)c2)c(CCCCC)c1 39.8 µM [inhibitor, partial curve, poor fit]
O=[N+]([O-])c1ccc(C2CC(c3ccccc3)=Nc3ccccc3S2)cc1 (stereo not drawn) 44.7 µM [inhibitor, partial curve, poor fit]
O=c1c2c3c(sc2n(Cc2ccccc2F)c(=O)n1-c1ccc(Cl)cc1)CCCC3 0.631 µM [inhibitor, full curve, poor fit]
CC(NC(=O)CSc1nc2ccccc2n1C)c1ccccc1 (stereo not drawn) 15.8 µM [inhibitor, single point]
CC(SC(=S)N1CCCC1)C(=O)O (stereo not drawn) 4.47 µM [inhibitor, full curve, poor fit]
COc1ccc(Cl)cc1NC(=O)COC(=O)c1ccc(Br)o1 14.1 µM [inhibitor, partial curve]
Cc1ccc(/C=C/C(=O)c2ccccc(=O)c2O)c(C)c1 39.8 µM [inhibitor, partial curve]

Activity change, negative = inhibition, inactive:
COc1ccc(C2(CNC(=O)C(=O)Nc3ccc(F)cc3)CCCC2)cc1OC -1.1%
Cc1ccc(NC(=O)C2CCC(CNS(=O)(=O)c3csc(C(N)=O)c3)CC2)cc1Cl (stereo not drawn) -24.5%
Cc1ccc(CN2C(=O)CSC2c2ccc(F)cc2)cc1 (stereo not drawn) -19.2%
Cc1nc2ccn(Cc3cccs3)c(=O)c2cc1C(=O)Nc1ccccc1 -8.68%
O=C(O)C1Sc2[nH]c(=O)sc2C2c3cc(Br)ccc3OC(=O)C12 (stereo not drawn) -3.45%
COc1ccc(NC(=O)CSc2nc(=O)n(CCN3CCOCC3)c3c2CCCC3)c(OC)c1 -16%
Cc1nn2c(N3CCN(C)CC3)c3c(nc2c1-c1ccccc1)CCCC3 1.22%
COC(=O)N=Nc1c(O)[nH]c2ccc(Br)cc12 -18.8%
O=C(NC(=S)Nc1cccc(Cl)c1N1CCCCC1)c1ccc2c(c1)OCCO2 -8.97%
CC(C)N(Cc1cn[nH]c1-c1ccc(-c2ccccc2)cc1)Cc1nccn1C -28.2%
O=C(NCC(=O)N1CCOCC1)c1ccc(Br)cc1 -25.4%
CN1CCN(c2ccc(S(=O)(=O)N3CCCCC3)cc2NC(=O)COc2ccc(F)cc2)CC1 -19.3%
N=C1C(c2ccccc2)=C(O)CN1c1cccc(S(=O)(=O)N2CCOCC2)c1 -7.79%
CC(=O)Nc1cccc(C(=O)OCC(=O)NC2CCCCCCC2)c1 -19%

Ordered by SMILES length (descending): some entries from above.
Activity change, negative = inhibition, inactive:
CN1CCN(c2ccc(S(=O)(=O)N3CCCCC3)cc2NC(=O)COc2ccc(F)cc2)CC1 -19.3%
COc1ccc(C2(CNC(=O)C(=O)Nc3ccc(F)cc3)CCCC2)cc1OC -1.1%
O=C(O)C1Sc2[nH]c(=O)sc2C2c3cc(Br)ccc3OC(=O)C12 (stereo not drawn) -3.45%
Cc1ccc(CN2C(=O)CSC2c2ccc(F)cc2)cc1 (stereo not drawn) -19.2%
O=C(NCC(=O)N1CCOCC1)c1ccc(Br)cc1 -25.4%
